Experimental data reported in PubChem BioAssay AID1471 (National Center for Advancing Translational Sciences (NCATS), 2008).
Screen size: about 230,000 compounds; about 310 (0.13%) were called active. Inconclusive results, whose numbers are uncertain, are shown with a selection of clear calls. Calls come from the whole dose curve; as a rule, active = well fitted activation curve with a large enough effect; inconclusive = small, poorly fitted or top-dose-only effect; inactive = no such curve, though single readings can be large or run the other way. Potencies beside an inconclusive call are fits to weak or partial responses and may not hold up.
Potency is the fitted concentration of half-maximal effect.

Test: qHTS Multiplex Assay to Identify Dual Action Probes in a Cell Model of Huntington: Cytoprotection (ATP); note: nearly all actives have a fitted effect of over 45% in size;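 for cytoprotection (ATP increase): toxic huntingtin expression switched on by the ecdysone agonist tebufenozide; % of control where 0% means no effect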
Conditions: PC12 HTT-Q103 induced, ATP luminescence, 40 h; cytoprotection (ATP increase): at 56.4 µM (top of the series) unless noted
Procedure, shortened: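 Compounds added alongside 100 nM tebufenozide, which induces toxic Q103 huntingtin exon 1-GFP in stable PC12 cells; surviving cells quantified by luminescent ATP measurement. Medium: phenol red-free DMEM, 5% equine and 5% calf serum.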
For `COC(=O)[C@@H]1CC[C@H](C)[C@@H](c2ccc(C)cc2)N1C(=O)c1ccc(/C=N\O[C@@H](C)c2cn([C@H](CO)Cc3ccccc3)nn2)cc1`, the Potency was inconclusive: 1260 nM [activator, single point]. In the case of `O=C1OC(c2cc(I)c(O)c(I)c2)(c2cc(I)c(O)c(I)c2)c2ccccc21`, the Potency is reported as inconclusive: 35500 nM [activator, partial curve, poor fit]. In the case of `Cc1ccc(NS(=O)(=O)c2ccc3c(c2)CCC(=O)N3)cc1C`, the Potency is reported as inconclusive: 794 nM [activator, full curve, poor fit]. For `Cn1cc(CC(=O)Nc2cccc(C#N)c2)c2ccccc21`, the Potency was inconclusive: 100 nM [activator, partial curve, poor fit]. With `CCN1CCN(c2c(Cl)cccc2NC(=O)c2ccc([N+](=O)[O-])cc2)CC1` the Potency was inconclusive: 1120 nM [activator, single point]. With `N[C@@H](Cc1cnc[nH]1)C(=O)O` the Potency was inconclusive: 1780 nM [activator, full curve]. For `Cc1ccc(SCC2(O)CCN(S(=O)(=O)c3ccc(Cl)cc3)CC2)cc1`, the Potency was inconclusive: 562 nM [activator, full curve, poor fit]. With `CCN(CC)CCNC(=O)c1ccc(NC(C)=O)cc1` the Potency was inconclusive: 631 nM [activator, single point]. In the case of `C/C(=N\NC(=O)CSc1nc(C)cc(C)n1)c1cccs1`, the Potency is reported as inconclusive: 1410 nM [activator, partial curve]. For `O=C1OC(/C(=C\Nc2cc(Cl)ccc2O)[N+](=O)[O-])c2ccccc21` (stereo not given), the Potency was inconclusive: 6310 nM [activator, single point]. For `COc1ccc(N=C2SC(CC(=O)Nc3ccccc3)C(=O)N2CCN2CCOCC2)cc1` (stereo not given), the “cytoprotection (ATP increase)” value was inactive: -43.4%. For `COc1ccc(-c2cc(C(F)F)n3ncc(C(=O)Nc4cc(C)on4)c3n2)cc1`, the Potency was inconclusive: 5620 nM [activator, single point]. With `Cc1cc(OC(=O)c2c(F)cc(F)cc2F)nc(C)n1` the Potency was inconclusive: 708 nM [activator, single point]. With `COc1cccc(-c2nnc3sc(C4CCCCC4)nn23)c1` the Potency was inconclusive: 3160 nM [activator, single point]. With `Cc1ccc(-n2ncc3c(=O)n(CC#N)cnc32)cc1C` the “cytoprotection (ATP increase)” value was inactive: -1.74%. For `COc1ccc(/C=N/NC(=O)c2cccnc2)cc1CSc1ccccn1`, the Potency was inconclusive: 5620 nM [activator, single point]. For `CC(=O)c1cccc(NC(=O)/C=C/c2ccc([N+](=O)[O-])s2)c1`, the Potency was inconclusive: 22400 nM [activator, single point]. For `COc1ccc(NC(=O)N2CC[C@@]3(CCCN(S(C)(=O)=O)C3)C2)cc1`, the Potency was inconclusive: 5620 nM [activator, single point]. With `[Cu].[NH-][C@H](CC(=O)O)C(=O)O.[NH-][C@H](CC(=O)O)C(=O)O` the cytoprotection (ATP increase) was inactive: 1.18% [at 10 µM]. For `CCCCCn1c(=O)[nH]c2cc(C(=O)NCCCN(C)Cc3ccccc3)ccc2c1=O`, the Potency was inconclusive: 1260 nM [activator, single point]. With `CN=C(Nc1ccc2c(c1)OCO2)SC1CC(=O)N(c2ccccc2)C1=O` (stereo not given) the cytoprotection (ATP increase) was inactive: 5.51% [at 10 µM]. With `CCOC(=O)[C@H](CCc1ccccc1)N[C@@H](C)C(=O)N1[C@H](C(=O)O)C[C@H]2CCCC[C@@H]21` the Potency was inconclusive: 3980 nM [activator, full curve, poor fit]. For `CC(Sc1ccccc1)C(=O)NN=C1CCCCCC1` (stereo not given), the Potency was inconclusive: 1000 nM [activator, partial curve]. In the case of `COc1ccc(NC(=O)N2CC[C@@]3(CCCN(C(C)=O)C3)C2)cc1`, the “cytoprotection (ATP increase)” value is reported as inactive: -13.1%. For `O=S(=O)(c1ccc2nc(SCc3ccc(Cl)cc3)[nH]c2c1)N1CCOCC1`, the Potency was inconclusive: 1260 nM [activator, single point]. With `Cc1cc(NC(=O)CSc2nnc(NC(=O)C3CC(=O)N(c4ccccc4)C3)s2)no1` (stereo not given) the Potency was inconclusive: 100 nM [activator, full curve]. For `CC(C)c1cc(Br)ccc1OCCCN1C(=O)NC(C)(C)C1=O`, the Potency was inconclusive: 5010 nM [activator, single point]. For `COc1ccc(Oc2ncc3nc(-c4ccc(OC)cc4)c(=O)n(Cc4cccs4)c3n2)cc1`, the Potency was inconclusive: 794 nM [activator, single point]. For `O=C(Nc1cccc(F)c1)c1ccccc1-c1ccccc1`, the cytoprotection (ATP increase) was inactive: 3.47% [at 10 µM]. In the case of `O=C(O)CCCn1cc(NC(=O)COc2ccc([N+](=O)[O-])cc2)cn1`, the “cytoprotection (ATP increase)” value is reported as inactive: -25.5%. With `CCc1ccc(S(=O)(=O)NC(=S)Nc2ccccc2)cc1` the Potency was inconclusive: 7.1 nM [activator, full curve, poor fit]. With `Cc1c(N/C(=N/S(=O)(=O)c2cc([N+](=O)[O-])ccc2Cl)c2ccccc2)c(=O)n(-c2ccccc2)n1C` the Potency was inconclusive: 891 nM [activator, full curve, poor fit]. With `CCN1C(=O)[C@H]2[C@@H]3[C@H](O)C=CC(=O)[C@H]3CC[C@H]2C1=O` the Potency was inconclusive: 5620 nM [activator, single point]. In the case of `Cc1c([N+](=O)[O-])c([N+](=O)[O-])nn1CC(=O)N1CCOCC1`, the Potency is reported as inconclusive: 5620 nM [activator, single point]. With `O=C(C(Cc1ccccc1)N1C(=O)c2ccccc2C1=O)N1c2ccccc2CCc2ccccc21` (stereo not given) the cytoprotection (ATP increase) was inactive: 14.7% [at 10 µM]. In the case of `OCl`, the Potency is reported as inconclusive: 5620 nM [activator, full curve, poor fit]. In the case of `COc1ccccc1-c1cncnc1N1CCN(C)CC1`, the Potency is reported as inconclusive: 501 nM [activator, partial curve, poor fit]. For `COc1ccc(C2=NCN(c3ccc(C)cc3)C(=S)N2)cc1`, the Potency was inconclusive: 5620 nM [activator, single point]. In the case of `Cn1nnnc1SCC(=O)Nc1cc(C(C)(C)C)nn1-c1ccccc1`, the Potency is reported as inconclusive: 1260 nM [activator, single point]. With `CCOC(=O)C1=NOC(CNC(=O)c2ccccc2Cl)C1` (stereo not given) the Potency was inconclusive: 112 nM [activator, partial curve, poor fit].
